Assay [1] has as its target myc-tagged MYH9-S1943E (UniProt P35579). Nature of the assay: co-IP; HEK-293T cells cotransfected with myc-tagged and Flag-tagged plasmids; immunoprecipitation and western blot of the tags.
The target of assay [2] is myc-tagged MYH9 (wild type) (UniProt P35579). The assay is described as above.
For assay [3], the target named is hypoxia-inducible factor-1α (endogenous) (human (endogenous in SNU-387, SNU-387-LR, Hep-3B-LR, HuH-7-LR)) (UniProt Q16665). Nature of the assay: co-IP; endogenous proteins in lysates of HCC lenvatinib-resistant cells (Hep-3B-LR, HuH-7-LR); IgG as control.
Assay [4] shares this target. The description is as above. This is another data set of the same source.
The target in assay [5] is non-muscle myosin heavy chain 9 (endogenous) (human (endogenous in SNU-387-LR, Hep-3B-LR, HuH-7-LR)) (UniProt P35579). The assay is described as above.
In assay [6] the target is myc-tagged MYH9-S1943E (UniProt P35579). Nature of the assay: co-IP; HEK-293T cells cotransfected with myc-tagged and Flag-tagged plasmids; immunoprecipitation and western blot of the tags. This is another data set of the same source.
Assay [7] concerns the target myc-tagged MYH9 (wild type) (UniProt P35579). The description is as above. The source holds these as a separate data set.
A further assay addresses myc-tagged MYH9-S1943A (UniProt P35579). The description is as above.

By UniProt entry, the sequences of proteins in these tests, tags left out. Where a name states a change or a piece, a line headed by the entry shows the natural chain unless it says otherwise.
UniProt P35579: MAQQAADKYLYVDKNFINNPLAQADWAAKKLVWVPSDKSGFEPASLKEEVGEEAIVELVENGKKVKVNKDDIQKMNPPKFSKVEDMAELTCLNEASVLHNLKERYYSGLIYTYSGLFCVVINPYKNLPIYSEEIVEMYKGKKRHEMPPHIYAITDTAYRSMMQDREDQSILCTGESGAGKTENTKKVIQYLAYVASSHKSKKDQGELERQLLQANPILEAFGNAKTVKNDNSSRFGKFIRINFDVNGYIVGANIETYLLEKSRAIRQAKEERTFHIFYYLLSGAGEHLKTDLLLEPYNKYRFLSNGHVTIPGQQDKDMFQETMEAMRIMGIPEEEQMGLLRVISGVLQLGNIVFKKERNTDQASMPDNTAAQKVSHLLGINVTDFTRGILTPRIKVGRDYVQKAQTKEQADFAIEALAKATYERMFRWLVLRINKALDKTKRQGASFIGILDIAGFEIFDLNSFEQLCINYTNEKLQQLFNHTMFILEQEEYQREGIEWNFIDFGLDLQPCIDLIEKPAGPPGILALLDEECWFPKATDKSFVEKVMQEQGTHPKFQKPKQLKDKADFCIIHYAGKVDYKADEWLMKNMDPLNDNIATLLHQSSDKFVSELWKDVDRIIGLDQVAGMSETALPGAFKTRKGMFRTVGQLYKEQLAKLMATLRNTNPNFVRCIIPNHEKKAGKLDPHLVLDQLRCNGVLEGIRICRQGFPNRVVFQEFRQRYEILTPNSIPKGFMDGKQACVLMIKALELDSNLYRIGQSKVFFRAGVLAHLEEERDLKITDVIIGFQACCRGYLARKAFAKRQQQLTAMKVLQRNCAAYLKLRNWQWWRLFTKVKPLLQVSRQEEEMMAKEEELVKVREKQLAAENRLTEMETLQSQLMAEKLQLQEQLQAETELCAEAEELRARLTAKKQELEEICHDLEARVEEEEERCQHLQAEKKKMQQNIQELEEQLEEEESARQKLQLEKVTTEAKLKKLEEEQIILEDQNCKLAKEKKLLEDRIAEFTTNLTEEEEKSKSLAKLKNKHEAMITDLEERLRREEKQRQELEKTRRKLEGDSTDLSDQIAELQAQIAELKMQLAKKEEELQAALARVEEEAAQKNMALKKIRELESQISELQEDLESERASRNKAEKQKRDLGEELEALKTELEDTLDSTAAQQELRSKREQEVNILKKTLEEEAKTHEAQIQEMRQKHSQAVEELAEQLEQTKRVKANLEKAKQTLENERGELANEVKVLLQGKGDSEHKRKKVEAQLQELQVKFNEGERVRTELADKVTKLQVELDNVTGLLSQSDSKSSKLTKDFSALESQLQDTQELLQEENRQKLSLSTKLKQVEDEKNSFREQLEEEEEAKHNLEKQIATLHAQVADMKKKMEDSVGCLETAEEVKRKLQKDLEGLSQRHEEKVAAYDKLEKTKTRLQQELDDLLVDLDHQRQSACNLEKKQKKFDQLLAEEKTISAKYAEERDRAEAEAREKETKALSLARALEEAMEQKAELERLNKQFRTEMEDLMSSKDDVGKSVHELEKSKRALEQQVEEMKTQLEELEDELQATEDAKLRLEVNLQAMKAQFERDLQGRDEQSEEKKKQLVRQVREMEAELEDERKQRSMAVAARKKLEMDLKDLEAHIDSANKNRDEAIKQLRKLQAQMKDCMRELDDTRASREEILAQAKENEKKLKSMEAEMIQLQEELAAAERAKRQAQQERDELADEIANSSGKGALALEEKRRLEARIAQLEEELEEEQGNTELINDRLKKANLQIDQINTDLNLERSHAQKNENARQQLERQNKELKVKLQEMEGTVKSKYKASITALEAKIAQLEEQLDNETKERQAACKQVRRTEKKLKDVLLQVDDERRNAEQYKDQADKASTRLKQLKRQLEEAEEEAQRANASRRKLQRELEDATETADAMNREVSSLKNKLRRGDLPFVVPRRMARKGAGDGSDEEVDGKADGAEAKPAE
UniProt Q16665: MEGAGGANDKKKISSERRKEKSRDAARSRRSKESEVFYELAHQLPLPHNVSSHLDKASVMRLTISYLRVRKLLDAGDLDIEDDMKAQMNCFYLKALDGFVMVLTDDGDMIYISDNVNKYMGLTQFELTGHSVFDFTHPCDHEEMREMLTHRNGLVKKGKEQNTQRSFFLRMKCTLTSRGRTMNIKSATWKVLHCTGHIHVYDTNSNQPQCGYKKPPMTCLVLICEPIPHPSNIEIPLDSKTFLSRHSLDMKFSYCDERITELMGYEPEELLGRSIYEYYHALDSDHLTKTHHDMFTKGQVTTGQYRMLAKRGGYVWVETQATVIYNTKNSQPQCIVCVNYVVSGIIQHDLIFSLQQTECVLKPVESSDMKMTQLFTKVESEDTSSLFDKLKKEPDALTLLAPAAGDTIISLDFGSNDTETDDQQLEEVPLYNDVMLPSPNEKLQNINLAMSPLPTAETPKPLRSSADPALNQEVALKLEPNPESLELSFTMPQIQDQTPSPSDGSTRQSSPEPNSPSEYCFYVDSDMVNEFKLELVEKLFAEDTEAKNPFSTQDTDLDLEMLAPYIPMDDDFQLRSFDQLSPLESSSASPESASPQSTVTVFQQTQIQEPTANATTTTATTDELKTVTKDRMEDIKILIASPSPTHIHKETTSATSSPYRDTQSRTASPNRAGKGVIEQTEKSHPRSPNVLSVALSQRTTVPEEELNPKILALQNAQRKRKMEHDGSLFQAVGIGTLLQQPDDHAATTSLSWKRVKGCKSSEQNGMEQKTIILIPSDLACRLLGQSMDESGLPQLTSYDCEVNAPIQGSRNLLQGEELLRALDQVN

This is an account of results in paper PMC11412978.

Read-outs that look alike come from different tables or passages of the source. Results are given in words; binding and its absence hold for the method and conditions named. In cells and extracts the contact can be indirect. Some binding calls cover weakened binding; strength is not graded here. For some assays here: Where a sequence is shown, tags or fusion partners need not be part of it.

Consider “Flag-tagged HIF-1α (from UniProt Q16665 1-826)”, for which the binding result (with myc-tagged MYH9-S1943E [1]; in assay [2]) was “binds” each time.
In the case of “non-muscle myosin heavy chain 9 (endogenous) (from UniProt P35579 1-1960)”, in assay [3], the binding result is given as “binds”.

B1: ubiquitin-specific protease 22 (endogenous) (enzyme, UniProt Q9UPT9 1-525)
chain: MVSRPEPEGEAMDAELAVAPPGCSHLGSFKVDNWKQNLRAIYQCFVWSGTAEARKRKAKSCICHVCGVHLNRLHSCLYCVFFGCFTKKHIHEHAKAKRHNLAIDLMYGGIYCFLCQDYIYDKDMEIIAKEEQRKAWKMQGVGEKFSTWEPTKRELELLKHNPKRRKITSNCTIGLRGLINLGNTCFMNCIVQALTHTPLLRDFFLSDRHRCEMQSPSSCLVCEMSSLFQEFYSGHRSPHIPYKLLHLVWTHARHLAGYEQQDAHEFLIAALDVLHRHCKGDDNGKKANNPNHCNCIIDQIFTGGLQSDVTCQVCHGVSTTIDPFWDISLDLPGSSTPFWPLSPGSEGNVVNGESHVSGTTTLTDCLRRFTRPEHLGSSAKIKCSGCHSYQESTKQLTMKKLPIVACFHLKRFEHSAKLRRKITTYVSFPLELDMTPFMASSKESRMNGQYQQPTDSLNNDNKYSLFAVVNHQGTLESGHYTSFIRQHKDQWFKCDDAIITKASIKDVLDSEGYLLFYHKQFLEYE
As for B1, the binding result in assay [4] and in assay [5] was “binds” throughout.

B2: Flag-tagged USP22 (enzyme, UniProt Q9UPT9 1-525)
chain: B1 chain
In the case of B2, the results for the binding entry (with myc-tagged MYH9-S1943E [6]; in assay [7]; with myc-tagged MYH9-S1943A) were “binds”, “binds” and “no binding”, respectively.
